Target: human CD19 expressed on the cell surface (native format) (human) (UniProt P15391)
Assay: flow cytometry, human PBMC gated on CD20+CD3- B cells, FITC anti-His detection

Sequences of proteins named here, by UniProt entry; tags and fusion partners are left off. Residues count along the entry.
UniProt P15391, 20-488 limits assumed: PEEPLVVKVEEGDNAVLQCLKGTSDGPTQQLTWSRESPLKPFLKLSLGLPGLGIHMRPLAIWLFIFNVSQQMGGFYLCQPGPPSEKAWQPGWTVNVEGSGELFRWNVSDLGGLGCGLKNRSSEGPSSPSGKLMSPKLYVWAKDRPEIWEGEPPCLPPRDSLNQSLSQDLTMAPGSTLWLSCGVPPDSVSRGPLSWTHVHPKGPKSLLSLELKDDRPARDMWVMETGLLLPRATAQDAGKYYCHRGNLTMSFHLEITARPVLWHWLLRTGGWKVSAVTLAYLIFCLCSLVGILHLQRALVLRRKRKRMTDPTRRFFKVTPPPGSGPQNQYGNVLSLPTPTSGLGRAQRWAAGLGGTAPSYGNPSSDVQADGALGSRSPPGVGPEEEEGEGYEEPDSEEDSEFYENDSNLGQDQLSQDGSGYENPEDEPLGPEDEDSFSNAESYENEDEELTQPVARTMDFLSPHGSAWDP

Mean Fluorescence Intensity (MFI) in FITC channel: 2080 MFI
B1: CD19×CD3 bi-specific antibody using clone 37 (bispecific antibody, part only; not given: anti-CD3 scFv arm, linker, His tag, not shown: another chain or arm of the molecule; small tags and cut ends)
scFv: EIVLTQSPSSLSASVGDRVTISCRASQSVSRFLNWYQQKPGKAPKLLIYGVSTLERGVPSRFSGSGSGTDFTLTISSLQPEDFATYYCQESYIIPLTFGGGTKLEIKRSRGGGGSGGGGSGGGGSLEMAEVQLVQSGAEVKRPGESLTISCKGSEYSFASYWITWVRQMPGKGLEWMGRIDPSDSYTNYSPSFQGHVTISADKSISTAYLQWSSLKASDTAIYYCARPFQYDYGGYSDAFDIWGQGTMVTVSS

From patent US20190315859A1
